Experimental data from patent US7977304B2, “FK 228 derivates as HDAC inhibitors” (University of Southampton Highfield, priority 2005, dated 2011).

What was measured:
Assay type in all cases: cell-based
[1] = system: LNCAP prostate cancer cells; test: Activity Assay 6: CyQuant cell growth inhibition, LNCAP; settings: Homo sapiens, 96 h, 4 days
Protocol: (§1) We analysed the ability of compounds to inhibit the in vitro growth of human cancer cells. Cell proliferation assays were performed using the CyQuant™ assay system (Molecular Probes, Inc. USA) according to the manufacturer's instructions. MCF7 breast, A2780 ovarian and PC3 and LNCAP prostate cancer cells were plated in 96 well plates, at a density of 1000 cells for MCF7 cells or 5000 cells for M780/PC3/LNCAP cells, in 100 μl of cell culture medium per well. Compounds were added a minimum of 5 hours later, in serial dilutions in cell culture medium, in 100 μl volumes at 2× final concentration. Cell culture medium was removed after 4 (A2780, PC3 or LNCAP cells) or 6 days (MCF7 cells) by inversion of the plate onto blotting paper and cells were gently washed once with 200 μl PBS. Plates were frozen immediately for a minimum of one hour at −80° C. and then thawed. 200 μl of 1× CyQuant cell lysis buffer supplemented with dye, made according to the manufacturer's instruction, was added immediately to each well and incubated at room temperature for 3-5 minutes. Fluorescence was then measured for each well using a Cytofluor II Fluoresence Multiwell Plate Reader and CytoFluor II software with filters at 480 nm for excitation and 520 nm for emission maxima. Cell proliferation was determined for mean values of duplicate samples as percentages relative to untreated cell samples (=100%). […]

[2] = system: TNFα production from peripheral blood mononuclear cells (PBMCs); test: Activity Assay 7: LPS-induced TNFα secretion from PBMCs (QUANTIKINE immunoassay); settings: Homo sapiens, PBMC; Concentration 200 nM
Protocol: We analysed the ability of compounds to inhibit the production of TNFα from peripheral blood mononuclear cells (PBMCs). TNF-α immunoassays were carried out using the QUANTIKINE® Human TNF-α assay kit (R&D systems, Abingdon UK) according to the manufacturer's instructions. Human whole blood was separated using Ficol Paque™ Plus (GE Healthcare, Arnersham, UK) and the PBMCs were plated in 24 well plates, at a density of 2.5×10^6 in 500 μl of cell culture medium per well. Compounds were added 1 hour later in volumes of 100 μl at 6× final concentration. Five hours later lipopolysaccharide (LSP, Sigma, Poole, UK) was added in a volume of 10 μl at 60× final concentration. Plates were mixed and left overnight at 37° C. 5% C02. Plates were centrifuged and cell supernatant was transferred to a new plate. The QUANTIKINE® assay reagents and standards were prepared according to the manufacturer instructions. […] 50 μl of stop solution was added to each well in the same order as the substrate solution and the plate was read on a Biorad 680 96 well plate reader (Bio-Rad, Hemel Hempstead, UK) at 450 nm with λ correction at 570 nm. TNF-α levels were determined for mean values of duplicate samples using absorbance in nm, calibration zero values were subtracted from all results to correct for the addition of calibrator diluent in the assay.

[3] = system: MCF7 breast cancer cells; test: Activity Assay 6: CyQuant cell growth inhibition, MCF7; settings: Homo sapiens, 144 h, MCF7, 6 days
Protocol: as §1

[4] = system: normal human dermal fibroblasts (NHDF); test: Activity Assay 1: CyQuant cell proliferation assay, NHDF; settings: 144 h, 6 days, SAHA value from single experiment performed in duplicate, read-out: mean IC50 for growth inhibition (±SD), NHDF
Protocol: (§2) Method; Cell proliferation assays were performed using the CyQuant™ assay system (Molecular Probes, Inc. USA) according to the manufacturer's instructions. This system utilises a proprietary green fluorescent dye which undergoes strong fluorescent enhancement on binding cellular nucleic acids, to allow determination of cell number with a linear detection range between 50 to 250,000 cells. Estrogen receptor positive MCF7 breast cancer cells (ECAAC) and NHDF cells (Cambrex, UK) were plated in 96 well plates, at a density of 1000 cells in 100 μl of cell culture medium per well. Compounds were added a minimum of 5 hours later, in serial dilutions in cell culture medium, in 100 μl volumes at 2× final concentration. Six days later cell culture medium was removed by inversion of the plate onto blotting paper and cells were gently washed once with 200 μl PBS. […] Fluorescence was then measured for each well using a Cytofluor II Fluoresence Multiwell Plate Reader and CytoFluor II software with filters at 480 nm for excitation and 520 nm for emission maxima. Cell proliferation was determined for mean values of duplicate samples as percentages relative to untreated cell samples (=100%). […]
(§3) MCF7 and NHDF were incubated with the indicated concentrations of compounds. After 6 days cell growth relative to untreated cells (=100%) was determined using the CyQuant™ assay. […]

[5] = system: A2780 ovarian cancer cells; test: Activity Assay 6: CyQuant cell growth inhibition, A2780; settings: Homo sapiens, 96 h, A2780, 4 days
Protocol: as §1

[6] = system: MCF7 human breast cancer cells; test: Activity Assay 1: CyQuant cell proliferation assay, MCF7; settings: 144 h, MCF7, 6 days, mean ± SD of multiple experiments, read-out: mean IC50 for growth inhibition (±SD), MCF7
Protocol: as §2, §3

## O=C(CCCCCCC(=O)Nc1ccccc1)NO [SAHA, Suberoylanilide hydroxamic acid, reference compound]
[1]
  IC50: 4000 nM
[2]
  inhibition at 0.2 µM: 59%
[3]
  IC50: 483 nM
[4]
  IC50: ~2000 nM
[5]
  IC50: 595 nM
[6]
  IC50: 483 ± 109 nM
